Source: PMC10163693
These are yes or no findings as the source states them, for the method shown. Tags and fused reporters may be left off the sequences shown.

Sequences of proteins named here, by UniProt entry; tags and fusion partners are left off. Residues count along the entry.
His-Sumo-YAP1^WW1 (residues 174-204) (P46937, residues 174-204): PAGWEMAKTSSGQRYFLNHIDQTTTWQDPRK
His-Sumo-YAP1^WW2 (residues 227-266) (P46937, residues 227-266): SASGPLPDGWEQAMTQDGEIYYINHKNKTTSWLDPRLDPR

Target: T1, GST-NF1^AAAA (GST-NF1^PPQY with the four PPQY residues replaced by alanine) (UniProt P21359)
T1 sequence: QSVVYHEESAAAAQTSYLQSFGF
Assay: pull-down; GST, GST-NF1^PPQY or GST-NF1^AAAA prebound on Glutathione Sepharose beads; increasing amounts of His-Sumo-YAP1^WW1 or His-Sumo-YAP1^WW2 added; 20 mM Tris pH 8.0, 150 mM NaCl, 2 h, 4 °C; eluted with 10 mM GSH; SDS-PAGE, Coomassie blue; both purified

binding	Substance
no binding	His-Sumo-YAP1^WW2 (residues 227-266) (from UniProt P46937 227-266) (domain or fragment)
no binding	His-Sumo-YAP1^WW1 (residues 174-204) (from UniProt P46937 174-204) (domain or fragment)
